One assay has as its target HA-tagged PAX3 (UniProt P24610). Description: affinity purification with mass spectrometry; immunoprecipitation of PAX3 from extracts of C2C12 cells transfected with HA-tagged Pax3; mass spectrometry.
In the next assay the target is GST-PAX3 (UniProt P24610). Description: affinity purification with mass spectrometry; protein extracts of E10.5 wild type mouse limb buds incubated with GST-PAX3 protein, then immunoprecipitation with an anti-PAX3 antibody; mass spectrometry; only the target purified.

Amino acid sequences for entries named in this document (tags omitted).
UniProt P24610: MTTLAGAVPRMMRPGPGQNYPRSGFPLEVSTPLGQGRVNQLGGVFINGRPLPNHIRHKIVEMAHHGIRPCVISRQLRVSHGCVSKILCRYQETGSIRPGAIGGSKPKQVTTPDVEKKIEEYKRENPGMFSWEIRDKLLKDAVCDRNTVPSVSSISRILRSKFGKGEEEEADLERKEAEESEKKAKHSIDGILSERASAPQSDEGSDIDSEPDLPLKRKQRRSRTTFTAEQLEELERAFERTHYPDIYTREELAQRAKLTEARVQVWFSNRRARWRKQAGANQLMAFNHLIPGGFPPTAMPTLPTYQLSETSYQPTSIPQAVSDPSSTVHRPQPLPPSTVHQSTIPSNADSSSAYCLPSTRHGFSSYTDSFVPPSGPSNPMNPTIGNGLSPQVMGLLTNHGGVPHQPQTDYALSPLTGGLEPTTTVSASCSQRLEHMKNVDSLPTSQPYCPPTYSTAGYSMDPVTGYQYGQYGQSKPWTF

Experimental findings from publication PMC5148607 are described below.

Results are given in words; binding and its absence hold for the method and conditions named. In cells and extracts the contact can be indirect. Here binding means that the protein was enriched with, or labelled near, the bait; the list need not be complete.

B1: DNM2 (dynamin-2) (protein, UniProt P39054 1-870)
chain: MGNRGMEELIPLVNKLQDAFSSIGQSCHLDLPQIAVVGGQSAGKSSVLENFVGRDFLPRGSGIVTRRPLILQLIFSKTEYAEFLHCKSKKFTDFDEVRQEIEAETDRVTGTNKGISPVPINLRVYSPHVLNLTLIDLPGITKVPVGDQPPDIEYQIKDMILQFISRESSLILAVTPANMDLANSDALKLAKEVDPQGLRTIGVITKLDLMDEGTDARDVLENKLLPLRRGYIGVVNRSQKDIEGKKDIRAALAAERKFFLSHPAYRHMADRMGTPHLQKTLNQQLTNHIRESLPTLRSKLQSQLLSLEKEVEEYKNFRPDDPTRKTKALLQMVQQFGVDFEKRIEGSGDQVDTLELSGGARINRIFHERFPFELVKMEFDEKDLRREISYAIKNIHGVRTGLFTPDLAFEAIVKKQVVKLKEPCLKCVDLVIQELISTVRQCTSKLSSYPRLREETERIVTTYIREREGRTKDQILLLIDIEQSYINTNHEDFIGFANAQQRSTQLNKKRAIPNQGEILVIRRGWLTINNISLMKGGSKEYWFVLTAESLSWYKDEEEKEKKYMLPLDNLKIRDVEKGFMSNKHVFAIFNTEQRNVYKDLRQIELACDSQEDVDSWKASFLRAGVYPEKDQAENEDGAQENTFSMDPQLERQVETIRNLVDSYVAIINKSIRDLMPKTIMHLMINNTKAFIHHELLAYLYSSADQSSLMEESAEQAQRRDDMLRMYHALKEALNIIGDISTSTVSTPVPPPVDDTWLQNTSGHSPTPQRRPVSSVHPPGRPPAVRGPTPGPPLIPMPVGATSSFSAPPIPSRPGPQSVFANNDPFSAPPQIPSRPARIPPGIPPGVPSRRAPAAPSRPTIIRPAEPSLLD
Regarding B1, the binding entry with HA-tagged PAX3 and in the assay with GST-PAX3 was “binds” in each case.
